Measured values reported in publication PMC8273887 (Journal of Medicinal Chemistry, 2021).
No constants are given. Whether binding was seen depends on the method and setting. In cells and extracts the contact can be indirect. Some binding calls cover weakened binding; strength is not graded here.

Protein sequences, listed by entry. Tags and fused reporters are not part of them. Residues count along the entry.
UniProt Q7L985, residues 28-606: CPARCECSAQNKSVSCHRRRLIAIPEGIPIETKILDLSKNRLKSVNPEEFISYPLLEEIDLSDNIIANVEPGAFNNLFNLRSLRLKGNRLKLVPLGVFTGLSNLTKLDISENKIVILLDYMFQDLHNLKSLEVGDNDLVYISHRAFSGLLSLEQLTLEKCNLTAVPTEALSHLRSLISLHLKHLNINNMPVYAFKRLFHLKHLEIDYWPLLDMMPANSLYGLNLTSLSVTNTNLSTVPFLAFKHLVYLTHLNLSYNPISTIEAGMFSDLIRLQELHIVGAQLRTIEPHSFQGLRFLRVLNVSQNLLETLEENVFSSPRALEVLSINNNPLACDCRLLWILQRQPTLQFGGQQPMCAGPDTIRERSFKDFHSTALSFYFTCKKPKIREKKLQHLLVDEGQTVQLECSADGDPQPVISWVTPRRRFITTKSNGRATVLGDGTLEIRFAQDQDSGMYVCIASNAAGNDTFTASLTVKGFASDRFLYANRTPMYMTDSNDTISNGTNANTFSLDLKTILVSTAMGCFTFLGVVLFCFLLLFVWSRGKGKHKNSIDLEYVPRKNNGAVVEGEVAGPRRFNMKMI

Target: leucine-rich repeat receptor and nogo-interacting protein 2 (LINGO2), fused with Rluc or with YFP (UniProt Q7L985)
Assay: FRET or BRET; HEK-293 cells co-expressing LINGO2-Rluc (donor) and LINGO2-YFP (acceptor); coelenterazine 5 μM; emission ratio 530/480 nm minus donor-only background; basal condition and after 20 min with TFF3(C^57Acm) or TFF3 homodimer

binding: binds
Substance: leucine-rich repeat receptor and nogo-interacting protein 2 (LINGO2), fused with Rluc or with YFP (from UniProt Q7L985 28-606)
